Data from US20240150396A1 (The Texas A&M University System, priority 2021, published 2024).

Assays:
[1] = test system: T. cruzi epimastigotes (strain Y); assay: Growth of axenic cultures of T. cruzi epimastigotes; conditions: more active than K11777
[2] = Thiolation of inhibitors with glutathione, LCMS; assay type: physicochemical; conditions: for fraction of glutathione adduct: at equilibrium, of the inputted reactants; for Keq of glutathione adduct formation: 1 mM glutathione, Tris pH 8.0
Method: Samples were analyzed by HPLC-MS (as described above) by injecting 0.01 mL aliquots onto a Luna […] C18(2) 100 Å, 4.6 mm, 50 mm column (Phenomenex) using the HPLC method described in the chemistry section at 0-6 h time points. […] Integration of the chromatographic peaks of the inhibitors and their GSH adducts at each time point was used to determine the rate of GSH adduct formation.

Row | Compound | activity relative to K11777 [1] [fold] | fraction of glutathione adduct [2] [%] | Keq of glutathione adduct formation [2] [M⁻¹]
1 | C[C@@H](/C=C/c1ncccn1)NC(=O)[C@H](Cc1ccccc1)NC(=O)OCc1ccccc1 [Compound 10, Benzyl ((S)-1-Oxo-3-phenyl-1-(((S,E)-4-(pyrimidin-2-yl)but-3-en-2-yl)amino)propan-2-yl)carbamate] | ≥ 10 |  | 
2 | C[n+]1ccccc1/C=C/[C@H](Cc1ccccc1)NC(=O)[C@H](Cc1ccccc1)NC(=O)OCc1ccccc1.[I-] [Compound 12, 2-((S,E)-3-((S)-2-(((Benzyloxy)carbonyl)amino)-3-phenylpropanamido)-4-phenylbut-1-en-1-yl)-1-methylpyridin-1-ium Iodide] | ≥ 10 | 62 | 
3 | C[n+]1ccccc1/C=C/[C@H](CCc1ccccc1)NC(=O)[C@H](Cc1ccccc1)NC(=O)OCc1ccccc1 [Compound 15, 2-((S,E)-3-((S)-2-(((Benzyloxy)carbonyl)amino)-3-phenylpropanamido)-5-phenylpent-1-en-1-yl)-1-methylpyridin-1-ium] | ≥ 10 |  | 2400
4 | C[n+]1ccsc1/C=C/[C@H](Cc1ccccc1)NC(=O)[C@H](Cc1ccccc1)NC(=O)OCc1ccccc1.[I-] [Compound 26, 2-((S,E)-3-((S)-2-(((Benzyloxy)carbonyl)amino)-3-phenylpropanamido)-4-phenylbut-1-en-1-yl)-3-methylthiazol-3-ium Iodide] |  |  | 930
5 | CN1CCN(C(=O)N[C@@H](Cc2ccccc2)C(=O)N[C@H](/C=C/S(=O)(=O)c2ccccc2)CCc2ccccc2)CC1 [Compound K11777, reference compound] |  | 17 | 160
